Reference: PubChem BioAssay AID540276 (National Center for Advancing Translational Sciences (NCATS), 2011)
Where “and” joins values, the source holds several entries; their conditions need not be identical. Equal values may be shown once. Screen size: about 300,000 compounds; about 5,400 (1.8%) were called active. The shares of active, inactive and inconclusive entries below differ from those in the screen. The call rests on the fitted dose curve; tested in HEK293 cells. Where the call is inconclusive, the potency comes from a doubtful curve fit.
On the % scale 0 is the no-effect control and ±100 the full control effect; potency means the concentration at half of the fitted maximal effect.

Assay: qHTS for inhibitors of binding or entry into cells for Marburg Virus
Conditions: Marburg virus pseudotyped entry inhibition, cell reporter; activity change, negative = inhibition: at 37.8 µM (top of the series) unless noted
In the case of `CCn1c(=O)c(C(=O)Nc2ncccc2O)c(O)c2ccccc21`, the Potency is reported as inconclusive: 1 µM [inhibitor, full curve, poor fit].
With `COCCn1nnnc1C(c1ccccn1)N1CCN(c2cc(Cl)ccc2C)CC1` (stereo unspecified) the Potency was inconclusive: 35.5 µM [inhibitor, single point].
For `O=[N+]([O-])c1ccccc1N(S(=O)(=O)c1ccccc1)S(=O)(=O)c1ccccc1`, the Potency was inconclusive: 10 µM [inhibitor, partial curve, poor fit].
With `COCC1=Cc2cc3c(cc2C(C(C(=O)OC)C(=O)OC)N1C(=O)OC)OCO3` (stereo unspecified) the Potency was “inactive”.
With `O=C(COC(=O)c1c[nH]c(=O)[nH]c1=O)Nc1ccccc1` the Potency was inconclusive: 35.5 µM [activator, single point].
For `Cc1nn(CCO)c2nc(-c3cccs3)cc(C(F)(F)F)c12`, the “activity change, negative = inhibition” value was inactive: -13.8%.
In the case of `N#CC1=C(N)NC(SCC(=O)c2ccc(Br)cc2)=C(C#N)C12CCCCC2`, the Potency is reported as inconclusive: 13 µM [inhibitor, partial curve, poor fit].
With `CCc1ccc(NC(=O)CNC(=O)c2cn(-c3ccccc3OC)c(=O)c3ccccc23)cc1` the Potency was inconclusive: 29.1 µM [inhibitor, single point].
For `CN(CC(=O)NCCc1ccccc1)Cc1ccco1`, the “activity change, negative = inhibition” value was inactive: 14.8% [at 46.1 µM].
For `O=C(Nc1ccc(NC(=O)C2CCCCC2)nc1)c1ccco1`, the “activity change, negative = inhibition” value was inactive: 3.53%.
For `Cc1[nH]c2ccccc2c1/C=N/NC(=O)c1cccc(Br)c1`, the “activity change, negative = inhibition” value was inactive: 2.94% [at 46.1 µM].
In the case of `COc1ccc(N2CCN(Cc3cc(OC)c(O)c([N+](=O)[O-])c3)CC2)cc1`, the Potency is reported as inconclusive: 7.08 µM [activator, partial curve, poor fit].
With `COc1ccc(-c2nnc(SCC(N)=O)n2N)cc1` the “activity change, negative = inhibition” value was inactive: 4.32%.
For `Cc1[nH]c2ccccc2c1/C=C/c1nc2ccccc2c(=O)[nH]1`, the Potency was inconclusive: 1.58 µM [inhibitor, full curve, poor fit].
For `O=C(c1cccs1)N1C(=O)c2cccc3cccc1c23`, the “activity change, negative = inhibition” value was inactive: -15.1% [at 46.1 µM].
In the case of `CCc1nc(Sc2nnnn2-c2ccccc2)c2c3c(sc2n1)CCCC3`, the “activity change, negative = inhibition” value is reported as inactive: 1.58%.
In the case of `CC(CN(C(N)=O)c1ccccc1O)C(=O)O` (stereo unspecified), the “activity change, negative = inhibition” value is reported as inactive: 0%.
For `CC(C)NCC(O)c1ccc(O)c(O)c1` (stereo unspecified), the Potency was “inactive and inconclusive: 411 nM [activator, partial curve, poor fit] and inconclusive: 7.08 µM [inhibitor, partial curve, poor fit]”.
For `Cc1cc(C)cc(NC(=O)CSCc2nc3c(nnn3Cc3ccc(F)cc3)c(=O)[nH]2)c1`, the “activity change, negative = inhibition” value was inactive: -6.15%.
In the case of `COc1cc(NC(=S)NC(=O)c2ccc(F)cc2)ccc1NC(=O)c1ccco1`, the Potency is reported as inconclusive: 1.41 µM [inhibitor, partial curve, poor fit].
For `[O-]/C(=C(\C(=S)Nc1cccc2ccccc12)[n+]1ccccc1)c1ccc2c(c1)OCCO2`, the Potency was inconclusive: 6.51 µM [inhibitor, single point].
In the case of `Nc1nnc(-c2ccccc2F)s1`, the Potency is reported as inconclusive: 14.1 µM [activator, single point].
For `Cc1cc(Cl)c(OCCOCCN2CCN(C)CC2)c(Br)c1`, the Potency was inconclusive: 8.91 µM [inhibitor, partial curve, poor fit].
In the case of `COc1ccc(OC)c(NC(=O)Cn2cc(C(=O)c3ccccc3)c3ccccc32)c1`, the Potency is reported as inconclusive: 35.5 µM [inhibitor, single point].
With `COc1cc(/C=N/N=C(/N)c2nonc2N)cc(Br)c1OCc1cccc(C)c1` the Potency was inconclusive: 18.3 µM [inhibitor, single point].
In the case of `C=C(Nc1ccc(OC)cc1)C(=O)OC`, the Potency is reported as “inactive”.
With `COc1ccc(C(=O)Nc2ccc(S(=O)(=O)Nc3cc(C)nc(C)n3)cc2)cc1OC` the Potency was inconclusive: 5.62 µM [activator, single point].
In the case of `CC1(C)CC(NC(=O)C23CCC(C)(/C(=N/O)C2)C3(C)C)CC(C)(C)N1` (stereo unspecified), the Potency is reported as inconclusive: 7.3 µM [inhibitor, single point].
In the case of `O=C(N/N=C\c1c(O)ccc2ccccc12)c1ccc(S(=O)(=O)N2CCCCC2)cc1`, the Potency is reported as active: 1.26 µM.
With `COc1ccc(C(C)=O)cc1COC(=O)CNC(=O)c1ccc(Cl)cc1` the “activity change, negative = inhibition” value was inactive: -2.09%.
For `COc1ccc(CN2CCN(Cc3cccc4nonc34)CC2CCO)c(C)c1C` (stereo unspecified), the Potency was inconclusive: 3.55 µM [inhibitor, full curve, poor fit].
For `Cc1onc(-c2c(F)cccc2Cl)c1-c1nnc(-c2ccc(C(F)(F)F)cc2)o1`, the Potency was inconclusive: 25.1 µM [inhibitor, single point].
For `OCC#CCSc1nnc(-c2ccccc2Br)o1`, the “activity change, negative = inhibition” value was inactive: 13.2%.
With `CN(C(=O)C1CCC(=O)N(Cc2ccccc2F)C1)C1CCOCC1` (stereo unspecified) the Potency was inconclusive: 22.4 µM [activator, single point].
For `Cc1cccc(OC(C)C(=O)Nc2ccc(N3CCCCC3)cc2)c1` (stereo unspecified), the “activity change, negative = inhibition” value was inactive: 1.1%.
In the case of `Cn1cnnc1SCC(=O)N1N=C2/C(=C/c3ccco3)CCCC2C1c1ccco1` (stereo unspecified), the “activity change, negative = inhibition” value is reported as inactive: -10%.
For `COc1ccc(OC)c(NS(=O)(=O)c2ccc(NC(=O)c3ccc(NS(C)(=O)=O)cc3)cc2)c1`, the Potency was inconclusive: 35.5 µM [inhibitor, single point].
With `Cc1cc(=O)oc2cc(OCC(=O)N/N=C/c3cc([N+](=O)[O-])ccc3O)ccc12` the “activity change, negative = inhibition” value was inactive: 15.6%.
With `O=C1CC(SC(=Nc2ccccc2)Nc2ccccc2)C(=O)N1c1cccc(Cl)c1` (stereo unspecified) the Potency was inconclusive: 14.1 µM [inhibitor, single point].
For `Cn1cc(CNC(=O)Nc2ccc3c(c2)OCO3)cn1`, the “activity change, negative = inhibition” value was inactive: 5.8%.
With `CCOC(=O)CSc1nc2ccccc2c(=O)n1CC(C)C` the Potency was inconclusive: 0.562 µM [inhibitor, full curve, poor fit].
With `COc1ccc(N(C)S(=O)(=O)c2cccc(C(=O)NC3CCCC3)c2)cc1` the Potency was inconclusive: 7.08 µM [inhibitor, partial curve, poor fit].
With `CCn1c(CNc2ccc(Cl)cc2)nnc1SCC(=O)OC1CCCCC1` the Potency was inconclusive: 5.62 µM [inhibitor, full curve, poor fit].
For `O=C(CSc1nc(=O)n2ccccc2n1)NCc1ccc2c(c1)OCO2`, the “activity change, negative = inhibition” value was inactive: 2.45% [at 46.1 µM].
With `COc1ccc(/C=C/CN2CCC(CO)(Cc3ccccc3Cl)CC2)cc1` the Potency was inconclusive: 11.2 µM [inhibitor, partial curve, poor fit].
For `COc1cccc([C@H]2Oc3ccc(OC)cc3C(=NOC[C@@H](C)[C@H](OCc3ccccc3)C(C)C)[C@H]2O)c1`, the “activity change, negative = inhibition” value was inactive: 9.99% [at 14.2 µM].
In the case of `COC(=O)NC(CCc1ccccc1)C(C(=O)OC)C(=O)OC` (stereo unspecified), the Potency is reported as “inactive”.
With `COc1ccc(S(=O)(=O)N2CCN(c3cnccn3)CC2)cc1OC` the Potency was inconclusive: 5.62 µM [inhibitor, single point].
For `CCOC(=O)CSc1nnc(NC(=O)CN2CCCCC2)s1`, the Potency was inconclusive: 3.55 µM [inhibitor, single point].
For `Cc1cc(C)c2nc(N(CCCN(C)C)C(=O)C3=COCCO3)sc2c1`, the Potency was active: 20 µM.
With `O=C(CSc1nc2c(sc3ccccc32)c(=O)n1CCCN1CCCC1)NCc1ccco1` the Potency was inconclusive: 11.2 µM [inhibitor, partial curve, poor fit].
For `COc1ccc(/C=C/c2nc(-c3ccccc3)cc(=O)[nH]2)cc1`, the Potency was inconclusive: 22.4 µM [inhibitor, partial curve, poor fit].
In the case of `O=C(c1ccsc1)N1CCCC(N2CCN(c3ccccc3F)CC2)C1` (stereo unspecified), the “activity change, negative = inhibition” value is reported as inactive: -0.864%.
In the case of `Cc1ccc(CN(Cc2ccccc2)C(=S)NCC(=O)N2CCC3(CC2)OCCO3)o1`, the Potency is reported as inconclusive: 11.2 µM [inhibitor, single point].
With `Cc1ccccc1OCCCCCCN1CCNCC1` the Potency was inconclusive: 35.5 µM [inhibitor, single point].
With `CCOC(=O)N1CCN(S(=O)(=O)c2ccc(C)cc2)C1c1ccc(OC)cc1` (stereo unspecified) the Potency was inconclusive: 29.1 µM [inhibitor, single point].
With `COc1ccc2c(c1)c(C(O)CN1CCC(Cc3ccccc3)CC1)c(C)n2C` (stereo unspecified) the Potency was inconclusive: 1.26 µM [inhibitor, full curve, poor fit].
For `O=C(COC(=O)c1cccnc1Cl)c1ccc2c(c1)OCCO2`, the “activity change, negative = inhibition” value was inactive: 13.5% [at 46.1 µM].
With `CCCCNC(=S)N1CCn2cccc2C1c1ccc(F)cc1` (stereo unspecified) the Potency was active: 6.31 µM.
With `O=C1NN=C(c2ccccc2)CC1c1ccc(Cl)cc1Cl` (stereo unspecified) the Potency was inconclusive: 12.6 µM [inhibitor, partial curve, poor fit].
For `O=C(CNc1ccc2ccccc2c1)N/N=C/c1ccccn1`, the Potency was inconclusive: 0.562 µM [inhibitor, full curve, poor fit].
For `CCN(CC)S(=O)(=O)c1cc(C(=O)Oc2cccc(-c3cnc4ccccc4n3)c2)ccc1OC`, the Potency was inconclusive: 35.5 µM [inhibitor, single point].
With `COc1ccc(S(=O)(=O)NCC(c2cccs2)N2CCc3ccccc3C2)cc1` (stereo unspecified) the “activity change, negative = inhibition” value was inactive: -19.2%.
For `CC(C)c1ccc2[nH]c(O)c(N=NC(=O)c3cccc(S(=O)(=O)N4CCCCC4)c3)c2c1`, the Potency was active: 10 µM.
For `CC(C)=C(C#N)c1nc2ccccc2s1`, the “activity change, negative = inhibition” value was inactive: 1.98%.
With `O=C(Nc1ccc(Cl)c([N+](=O)[O-])c1)C(NCCCO)c1ccccc1` (stereo unspecified) the Potency was inconclusive: 1.12 µM [inhibitor, single point].
In the case of `O=C(/C=C/Nc1cccc(C(F)(F)F)c1)C(F)(F)F`, the “activity change, negative = inhibition” value is reported as inactive: 1.24%.
In the case of `Cc1cc(C)cc(NC(=O)N2c3ccccc3NC(=O)CC2C)c1` (stereo unspecified), the “activity change, negative = inhibition” value is reported as inactive: 1.73% [at 46.1 µM].
With `O=C(Nc1nc2ccccc2[nH]1)c1cccc([N+](=O)[O-])c1` the Potency was inconclusive: 5.01 µM [activator, single point].
With `COc1ccc(C(=O)NCCn2cc(SCC(=O)Nc3ccc4c(c3)OCCO4)c3ccccc32)cc1` the Potency was inconclusive: 35.5 µM [inhibitor, single point].
For `C/C(=N\NC(=O)c1ccc(NS(=O)(=O)c2cccs2)cc1)c1ccc(C(C)(C)C)cc1`, the Potency was inconclusive: 35.5 µM [inhibitor, single point].
